Laboratory results taken from patent publication US11135246B2, “Peptides and combination of peptides for use in immunotherapy against leukemias and other cancers” (Immatics Biotechnologies GmbH, priority 2017, dated 2021).

System: HLA molecules of primary tumor samples
Test: Identification of tumor associated peptides presented on the cell surface (HLA immune precipitation, LC-MS)
Parameters: species or system human
Details: for Peptide Presentation on cancer entities: entities on which the peptide was presented, CLL = chronic lymphocytic leukemia, AML = acute myeloid leukemia, CML = Chronic myeloid leukemia; for Peptide Presentation on tumor types: tumor entities on which the peptide was found presented (Table 8b)

Substance | Peptide Presentation on cancer entities | Peptide Presentation on tumor types
267 (KEKFPINGW; listed as Homo sapiens) [compound 267] | CLL | CRC, HNSCC, NHL, PACA
74 (SYADNILSF; listed as Homo sapiens) [compound 74] | CLL | BRCA, CRC, GBC, GBM, GC, HCC, HNSCC, MEL, NHL, NSCLCadeno, NSCLCother, NSCLCsquam, OC, OSCAR, PACA, PRCA, RCC, SCLC, UBC, UEC
83 (IPVSRPIL; listed as Homo sapiens) [compound 83] | CLL | –
18: peptide found in AGPAT5 (gene looked up) (YLLPSVVLL; listed as Homo sapiens) [compound 18] | CLL | BRCA, CCC, CRC, GBC, GBM, GC, GEJC, HCC, HNSCC, MEL, NHL, NSCLCadeno, NSCLCother, NSCLCsquam, OC, OSCAR, PACA, PRCA, RCC, SCLC, UBC, UEC
128 (GENDRLNHTY; listed as Homo sapiens) [compound 128] | CLL | NHL
257 (KEFFFVKVF; listed as Homo sapiens) [compound 257] | CLL | BRCA, CRC, GC, HCC, HNSCC, MEL, NHL, NSCLCadeno, NSCLCsquam, OSCAR, PACA, RCC, SCLC, UBC, UEC
214 (ATGAATPKK; listed as Homo sapiens) [compound 214] | CLL | –
275 (TENPLTKLL; listed as Homo sapiens) [compound 275] | AML | BRCA, CRC, HCC, NHL
239 (APSKTSLIM; listed as Homo sapiens) [compound 239] | CLL | BRCA, CCC, CRC, GBC, GBM, GC, HCC, HNSCC, MEL, NHL, NSCLCadeno, NSCLCother, NSCLCsquam, OC, OSCAR, PACA, PRCA, RCC, SCLC, UBC, UEC
204 (FLLPKVQSIQL; listed as Homo sapiens) [compound 204] | CLL | MEL, NSCLCadeno, NSCLCother, NSCLCsquam
148 (REYNEYENI; listed as Homo sapiens) [compound 148] | CLL | NHL, NSCLCadeno, OSCAR
191 (ISEAGKDLLY; listed as Homo sapiens) [compound 191] | AML, CML, CLL | BRCA, CCC, GEJC, HNSCC, MEL, NHL, NSCLCadeno, NSCLCsquam, OSCAR, PACA, PRCA, SCLC, UEC
84 (SPKLQIAAM; listed as Homo sapiens) [compound 84] | CLL | NHL, OC
207 (KLSDNILKL; listed as Homo sapiens) [compound 207] | CLL | CRC, GBC, MEL, NHL, PRCA
34 (SVYSETSNMDK; listed as Homo sapiens) [compound 34] | CLL | BRCA, MEL, NHL, NSCLCsquam, OC, OSCAR, RCC, UEC
234 (SPKESENAL; listed as Homo sapiens) [compound 234] | CLL | NHL, NSCLCsquam
277 (EEGNLLRSW; listed as Homo sapiens) [compound 277] | CLL | BRCA, CRC, GC, HCC, HNSCC, MEL, NHL, NSCLCadeno, NSCLCother, NSCLCsquam, OSCAR, PACA, RCC, UBC, UEC
161 (EEGDTLLHLF; listed as Homo sapiens) [compound 161] | CLL | CRC, HNSCC, NHL, NSCLCsquam, OSCAR, PACA, UBC, UEC
1 (LTEGHSGNYY; listed as Homo sapiens) [compound 1] | CLL | NHL
17 (KAYNRVIFV; listed as Homo sapiens) [compound 17] | CLL | BRCA, CCC, CRC, GBC, GBM, GEJC, HCC, HNSCC, NHL, NSCLCadeno, NSCLCother, NSCLCsquam, OC, OSCAR, PACA, SCLC, UBC, UEC
